These are literature values, as cited in patent US8772267B2, “Treatment of spinal mechanical pain” (New York University, priority 2002, dated 2014).

For the series, the system named is visceral pain induced by the administration of acetic acid. To be noted: cited from earlier work.

Consider `NCCCC(O)(P(=O)(O)O)P(=O)(O)O` [alendronate], for which, where the note is “injected intraperitoneally in mice”, the “effect on visceral pain” value is given as “able to reduce visceral pain”. For the same compound, the “analgesic doses relative to toxic doses” value (intraperitoneal, mice) was “close to those that induce toxicity”.
